According to patent US20090275099A1 (priority 2004, published 2009):
Like-named read-outs stand apart in the source and are kept apart here. At least one structure is not confirmed: it was looked up by name or label, or the drawing left a doubt. Some results were stated once for a whole list of compounds, not compound by compound.

Sequences of proteins named here, by UniProt entry; tags and fusion partners are left off. A change or cut given only in a name is not applied to a line headed by its entry.
UniProt P13621: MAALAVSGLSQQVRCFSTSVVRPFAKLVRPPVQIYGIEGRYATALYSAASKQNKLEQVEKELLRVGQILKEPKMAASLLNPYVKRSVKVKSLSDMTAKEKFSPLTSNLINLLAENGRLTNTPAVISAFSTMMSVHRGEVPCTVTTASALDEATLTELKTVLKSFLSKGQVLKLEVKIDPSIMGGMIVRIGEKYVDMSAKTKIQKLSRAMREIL
UniProt P32876: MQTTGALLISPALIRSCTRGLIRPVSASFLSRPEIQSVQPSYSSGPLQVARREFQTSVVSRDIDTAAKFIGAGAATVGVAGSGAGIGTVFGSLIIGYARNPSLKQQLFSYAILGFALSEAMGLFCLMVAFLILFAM

What was measured:
[1] = tested on: F1F0-ATPase, OSCP subunit; experiment: F1F0-ATPase activity in SMPs reconstituted in the presence or absence of the OSCP; assay type: biochemical, bovine
Procedure: An additional OSCP binding assay was conducted. […] Benzodiazepine derivative compounds that bind the OSCP include, but are not limited to: […]

Erk1/2 = experiment: EGF-induced Erk phosphorylation in keratinocytes (immunoblot); assay type: cell-based, human; conditions: Bz-423 0, 0.5 or 1.0 μM, EGF 10 ng/ml
[2] = tested on: ornithine decarboxylase (ODC); experiment: ODC activity in treated cells (conversion of 3H-ornithine to putrescine); assay type: cell-based, human; conditions: cells treated for 4 h
Procedure: In these experiments, the conversion of ornithine to putrescine was quantified using ^3H-ornithine. For comparisons, control cells were treated with vehicle control or difluoromethyl ornithine (DFMO), a potent inhibitor of ornithine decarboxylase (like Bz-423, DFMO is a potent anti-proliferative agent). […] The reduction in ODC activity was paralleled by a decrease in ODC protein levels measured under the same conditions.
As described above, Bz-423 induced apoptosis was signaled by an ROS response that arose from MRC complex III as a result of the state 3 to 4 transition. It was next sought to determine if the ROS response, critical for apoptosis, also mediated these effects on ODC. If the ROS was required for the decrease in ODC activity, it would likewise be implicated as potentially part of the anti-proliferative response to Bz-423. To test this, Ramos cells were treated with Bz-423, DFMO, or vehicle control for 4 h. In parallel, a second group of cells was pre-incubated with MnTBAP to limit the ROS and then cultured with Bz-423, DFMO, and vehicle control.

[3] = tested on: sub-mitochondrial particles; experiment: redox cycling, NADH and NAD(P)H oxidation assays with sub-mitochondrial particles; assay type: biochemical
[4] = target: T1, mitochondrial F1F0-ATPase (Bos taurus, UniProt P13621+P32876); assay type: biochemical, bovine; conditions: hydrolysis
[5] = tested on: isolated rat liver mitochondria; experiment: ROS production in isolated mitochondria (DCF oxidation); conditions: aerobic conditions supporting state 3 respiration, slope versus control
Procedure: Male Long Evans rats are starved overnight and sacrificed by decapitation. Liver samples are homogenized in ice cold buffer A (250 mM sucrose, 10 mM Tris, 0.1 mM EGTA, pH 7.4), and nuclei and cellular debris are pelleted (10 min, 830 g, 4° C.). Mitochondria are collected by centrifugation (10 min, 15,000 g, 4° C.), and the supernatant is collected as the S15 fraction. The mitochondrial pellet is washed three times with buffer B (250 mM sucrose, 10 mM Tris, pH 7.4), and re-suspended in buffer B at 20-30 mg/mL. Mitochondria are diluted (0.5 mg/mL) in buffer C (200 mM sucrose, 10 mM Tris, pH 7.4, 1 mM KH2PO4, 10 μM EGTA, 2.5 μM rotenone, 5 mM succinate) containing 2′,7′-dichlorodihydrofluorescin diacetate (DCFH-DA, 1 μM). For state 3 measurements, ADP (2 mM) is included in the buffer, and prior to the addition of Bz-423, mitochondria are allowed to charge for 2 min. To induce state 4, oligomycin (10 μM) is added to buffer C. […] To detect effects on O2^− and delta ψm, mitochondria are incubated for 15 min at 37° C. in buffer C with vehicle, Bz-423, or CCCP containing DHE (5 μM) or DIOC6(3) (20 nM), and aliquots are removed for analysis by fluorescence microscopy.
O2^− production by Bz-423 may result from binding to a protein within mitochondria or a target in another compartment that signals mitochondria to generate ROS. […]

[6] = target: T1, mitochondrial F1F0-ATPase; assay type: biochemical, bovine
[7] = synthesis, three-dimensional fit

For `N#CN=C(Nc1ccc(Cl)cc1Cl)NC(Cn1ccnc1)c1ccc(Cl)cc1Cl` (centres unmarked) [(1-(2,4-dichlorophenyl)-2-(1H-imidazol-1-yl)ethyl)-3-(2,4-dichlorophenyl)-2-cyanoguanidine], the “% activity without OSCP at IC50” value [1] was 84%.

For `CN1C(=O)C(Cc2ccc3ccccc3c2)N=C(c2ccc(O)cc2)c2cc(Cl)ccc21` (centres unmarked) [Bz-423], the “EGF-induced Erk-phosphorylation” value (Erk1/2) was “reduced by Bz-423 in a dose dependent fashion”, the “effect on ODC activity” value [2] was “significantly reduced ODC activity in a dose-dependant fashion” and the “substrate oxidation, redox cycling” value [3] was “does not lead to substrate oxidation”. For the same molecule, the Mechanism of inhibition [4] was “uncompetitive inhibitor”, the “nES, cooperativity factor for uncompetitive inhibition constant” value [4] was 1.0 ± 0.1 and the “K∞” value ([4]; three-dimensional fit) was 0.30 ± 0.01 mM. For the same molecule, the Vmax ([4]; three-dimensional fit) was 0.72 ± 0.01 µmol/min/mg, the “increase of the rate of ROS production” value [5] was “nearly two-fold” and the Mechanism of inhibition ([6]; synthesis) was “mixed inhibition”. For the same molecule, the “nE, cooperativity factor for competitive inhibition constant” value ([6]; synthesis) was 2.4±0.3, the “nES, cooperativity factor for uncompetitive inhibition constant” value ([6]; synthesis) was 1.4±0.4 and the “K∞” value [6, 7] was 0.08 ± 0.01 mM. The Vmax [6, 7] was 0.088 ± 0.005 µmol/min/mg.

Molecule `CN1C(=O)CN=C(c2ccc(Cl)cc2)c2cc(Cl)ccc21` [Compound 4-Cl-Dz, 4-chlorodiazepam, reference compound] has an EC50 ([6]; bovine SMPs, read-out: ATPase activity EC50 (μM), Synthesis) of 120 to 210 µM.

`N#Cc1cccc(C(=O)/N=C(\Nc2ccc(Cl)cc2)NC(Cn2ccnc2)c2ccc(Cl)cc2Cl)c1` (racemic) [(+/−)-(1-(2,4-dichlorophenyl)-2-(1H-imidazol-1-yl)ethyl)-3-(4-chlorophenyl)-2-(3-cyanobenzoyl)guanidine] was tested, and the “% activity without OSCP at IC50” value [1] was 66%.

With `N#CN=C(Nc1ccc(Cl)cc1Cl)NC(Cn1ccnc1)c1cc(C(F)(F)F)ccc1C(F)(F)F` (centres unmarked) [(1-(2,5-bis(trifluoromethyl)phenyl)-2-(1H-imidazol-1-yl)ethyl)-3-(2,4-dichlorophenyl)-2-cyanoguanidine] the “% activity without OSCP at IC50” value [1] was 82%.
